The values below are quoted from earlier work in patent US20050203105A1, “Composition and method for controlling alcohol-induced facial flushing in susceptible humans” (priority 2003, published 2005).

The conditions of this data set: single-dose study.

Take `Clc1ccc2c(c1)CCc1cccnc1C2=C1CCNCC1` [desloratadine, descarboethoxyloratadine]: the “effect of food on peak plasma concentrations (Cmax)” value is recorded as “not affected by food”.
